# Source: publication doi:10.1101/823096
# The chains behind the UniProt entries cited, without tags or fusion partners.
# UniProt O95819: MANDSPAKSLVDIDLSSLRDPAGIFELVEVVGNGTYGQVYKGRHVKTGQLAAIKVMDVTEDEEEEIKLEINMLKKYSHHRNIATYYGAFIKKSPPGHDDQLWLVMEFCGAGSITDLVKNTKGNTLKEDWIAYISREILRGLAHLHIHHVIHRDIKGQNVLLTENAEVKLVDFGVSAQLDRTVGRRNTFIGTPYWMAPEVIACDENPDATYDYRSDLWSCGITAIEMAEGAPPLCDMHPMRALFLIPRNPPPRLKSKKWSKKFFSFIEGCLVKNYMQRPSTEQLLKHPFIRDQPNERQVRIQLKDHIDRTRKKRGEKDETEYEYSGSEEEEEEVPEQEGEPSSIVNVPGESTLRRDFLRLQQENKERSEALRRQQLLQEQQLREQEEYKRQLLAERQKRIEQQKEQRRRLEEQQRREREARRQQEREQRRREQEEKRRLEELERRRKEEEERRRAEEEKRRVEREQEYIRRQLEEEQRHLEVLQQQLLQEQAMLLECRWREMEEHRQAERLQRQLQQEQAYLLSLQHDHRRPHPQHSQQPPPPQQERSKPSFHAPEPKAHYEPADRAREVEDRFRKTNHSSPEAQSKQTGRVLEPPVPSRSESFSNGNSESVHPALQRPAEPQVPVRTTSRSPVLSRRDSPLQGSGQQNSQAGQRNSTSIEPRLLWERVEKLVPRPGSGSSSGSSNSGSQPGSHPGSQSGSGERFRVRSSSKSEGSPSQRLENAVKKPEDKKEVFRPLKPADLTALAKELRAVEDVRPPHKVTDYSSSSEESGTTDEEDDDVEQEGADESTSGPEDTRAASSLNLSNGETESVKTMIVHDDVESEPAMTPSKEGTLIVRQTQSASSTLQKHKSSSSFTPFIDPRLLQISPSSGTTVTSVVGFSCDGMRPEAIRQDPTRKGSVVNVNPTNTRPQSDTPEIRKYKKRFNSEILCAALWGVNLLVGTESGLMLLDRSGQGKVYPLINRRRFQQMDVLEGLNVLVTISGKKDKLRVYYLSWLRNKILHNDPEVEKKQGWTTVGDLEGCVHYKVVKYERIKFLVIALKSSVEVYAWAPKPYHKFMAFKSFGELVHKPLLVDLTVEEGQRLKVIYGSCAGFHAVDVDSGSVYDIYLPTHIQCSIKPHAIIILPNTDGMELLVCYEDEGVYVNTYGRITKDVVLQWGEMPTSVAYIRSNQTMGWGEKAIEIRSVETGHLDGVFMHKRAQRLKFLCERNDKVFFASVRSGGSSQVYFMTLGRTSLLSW
# UniProt P67775: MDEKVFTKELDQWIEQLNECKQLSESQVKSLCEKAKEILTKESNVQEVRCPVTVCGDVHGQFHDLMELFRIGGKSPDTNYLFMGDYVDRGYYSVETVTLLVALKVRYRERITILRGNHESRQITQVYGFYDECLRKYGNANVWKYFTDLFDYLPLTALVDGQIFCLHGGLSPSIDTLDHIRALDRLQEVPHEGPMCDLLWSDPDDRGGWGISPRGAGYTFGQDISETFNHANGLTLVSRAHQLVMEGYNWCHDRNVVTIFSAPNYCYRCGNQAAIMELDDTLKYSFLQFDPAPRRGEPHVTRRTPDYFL
# UniProt P30153: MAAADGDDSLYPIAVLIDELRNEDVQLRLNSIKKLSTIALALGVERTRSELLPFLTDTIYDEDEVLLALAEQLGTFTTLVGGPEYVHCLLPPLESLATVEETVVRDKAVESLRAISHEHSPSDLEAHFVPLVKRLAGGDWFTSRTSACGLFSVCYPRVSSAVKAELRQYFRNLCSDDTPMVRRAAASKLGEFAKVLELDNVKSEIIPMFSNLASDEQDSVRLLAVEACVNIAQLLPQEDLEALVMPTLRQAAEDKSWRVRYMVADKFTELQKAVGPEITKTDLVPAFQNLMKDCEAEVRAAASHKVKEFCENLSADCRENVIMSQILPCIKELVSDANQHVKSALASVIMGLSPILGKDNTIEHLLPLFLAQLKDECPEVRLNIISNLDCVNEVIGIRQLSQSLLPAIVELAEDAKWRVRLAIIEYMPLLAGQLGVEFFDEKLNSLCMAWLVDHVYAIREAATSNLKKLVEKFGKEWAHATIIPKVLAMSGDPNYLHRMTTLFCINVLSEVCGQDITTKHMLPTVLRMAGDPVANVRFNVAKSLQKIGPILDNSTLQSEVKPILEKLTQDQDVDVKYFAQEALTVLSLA
# These are yes or no findings as the source states them, for the method shown. Binding seen in cells or lysates may run through a third protein. A yes stands for co-enrichment or nearness to the bait. Other partners may have been found.
# Legend:
# [1] = molecular target: T1, STRN4, endogenous (human (endogenous in HEK TER, IMR90)) (UniProt Q9NRL3); assay: affinity purification with mass spectrometry
# T1 sequence: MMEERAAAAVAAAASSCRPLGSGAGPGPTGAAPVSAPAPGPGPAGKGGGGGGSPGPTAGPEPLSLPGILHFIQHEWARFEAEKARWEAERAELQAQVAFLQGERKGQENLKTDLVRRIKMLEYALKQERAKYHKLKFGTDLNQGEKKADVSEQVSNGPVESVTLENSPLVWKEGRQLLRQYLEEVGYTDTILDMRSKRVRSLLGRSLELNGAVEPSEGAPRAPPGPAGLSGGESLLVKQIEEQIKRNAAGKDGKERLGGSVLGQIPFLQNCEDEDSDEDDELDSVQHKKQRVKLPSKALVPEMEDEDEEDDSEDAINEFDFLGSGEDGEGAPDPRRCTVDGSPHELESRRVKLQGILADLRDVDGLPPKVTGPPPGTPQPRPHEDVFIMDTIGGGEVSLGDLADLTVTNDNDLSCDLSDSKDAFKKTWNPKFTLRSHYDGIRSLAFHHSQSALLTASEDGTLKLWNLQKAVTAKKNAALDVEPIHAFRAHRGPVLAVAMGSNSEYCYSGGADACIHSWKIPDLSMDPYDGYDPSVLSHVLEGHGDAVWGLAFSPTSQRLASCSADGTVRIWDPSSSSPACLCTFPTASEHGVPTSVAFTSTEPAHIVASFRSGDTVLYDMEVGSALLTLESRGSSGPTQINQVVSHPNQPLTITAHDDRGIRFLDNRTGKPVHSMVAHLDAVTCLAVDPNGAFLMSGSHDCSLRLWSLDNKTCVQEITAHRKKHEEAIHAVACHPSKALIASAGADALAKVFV
# [2] = molecular target: NTAP-MAP4K4 (N-terminal Flag-HA tagged MAP4K4) (human) (UniProt O95819); assay: affinity purification with mass spectrometry
Molecule,binding [1],binding [2]
"mitogen-activated protein kinase kinase kinase kinase 4 (MAP4K4), endogenous (from UniProt O95819 1-1239) (enzyme)",binds,
"PP2A Cα subunit, endogenous (from UniProt P67775 1-309) (enzyme)",binds,
"PP2A Aα subunit (PPP2R1A), endogenous (from UniProt P30153 1-589)",,binds
"STRN3, endogenous (protein, UniProt Q13033 1-797) MDELAGGGGGGPGMAAPPRQQQGPGGNLGLSPGGNGAAGGGGPPASEGAGPAAGPELSRPQQYTIPGILHYIQHEWARFEMERAHWEVERAELQARIAFLQGERKGQENLKKDLVRRIKMLEYALKQERAKYHKLKYGTELNQGDLKMPTFESEETKDTEAPTAPQNSQLTWKQGRQLLRQYLQEVGYTDTILDVRSQRVRSLLGLSNSEPNGSVETKNLEQILNGGESPKQKGQEIKRSSGDVLETFNFLENADDSDEDEENDMIEGIPEGKDKHRMNKHKIGNEGLAADLTDDPDTEEALKEFDFLVTAEDGEGAGEARSSGDGTEWDKDDLSPTAEVWDVDQGLISKLKEQYKKERKGKKGVKRANRTKLYDMIADLGDDELPHIPSGIINQSRSASTRMTDHEGARAEEAEPITFPSGGGKSFIMGSDDVLLSVLGLGDLADLTVTNDADYSYDLPANKDAFRKTWNPKYTLRSHFDGVRALAFHPVEPVLVTASEDHTLKLWNLQKTVPAKKSASLDVEPIYTFRAHIGPVLSLAISSNGEQCFSGGIDATIQWWNMPSPSVDPYDTYEPNVLAGTLVGHTDAVWGLAYSGIKNQLLSCSADGTVRLWNPQEKLPCICTYNGDKKHGIPTSVDFIGCDPAHMVTSFNTGSAVIYDLETSQSLVILSSQVDSGLQSNNHINRVVSHPTLPVTITAHEDRHIKFFDNKTGKMIHSMVAHLDAVTSLAVDPNGIYLMSGSHDCSIRLWNLDSKTCVQEITAHRKKLDESIYDVAFHSSKAYIASAGADALAKVFV",,binds
"STRN4, endogenous (protein, UniProt Q9NRL3 1-753) MMEERAAAAVAAAASSCRPLGSGAGPGPTGAAPVSAPAPGPGPAGKGGGGGGSPGPTAGPEPLSLPGILHFIQHEWARFEAEKARWEAERAELQAQVAFLQGERKGQENLKTDLVRRIKMLEYALKQERAKYHKLKFGTDLNQGEKKADVSEQVSNGPVESVTLENSPLVWKEGRQLLRQYLEEVGYTDTILDMRSKRVRSLLGRSLELNGAVEPSEGAPRAPPGPAGLSGGESLLVKQIEEQIKRNAAGKDGKERLGGSVLGQIPFLQNCEDEDSDEDDELDSVQHKKQRVKLPSKALVPEMEDEDEEDDSEDAINEFDFLGSGEDGEGAPDPRRCTVDGSPHELESRRVKLQGILADLRDVDGLPPKVTGPPPGTPQPRPHEDVFIMDTIGGGEVSLGDLADLTVTNDNDLSCDLSDSKDAFKKTWNPKFTLRSHYDGIRSLAFHHSQSALLTASEDGTLKLWNLQKAVTAKKNAALDVEPIHAFRAHRGPVLAVAMGSNSEYCYSGGADACIHSWKIPDLSMDPYDGYDPSVLSHVLEGHGDAVWGLAFSPTSQRLASCSADGTVRIWDPSSSSPACLCTFPTASEHGVPTSVAFTSTEPAHIVASFRSGDTVLYDMEVGSALLTLESRGSSGPTQINQVVSHPNQPLTITAHDDRGIRFLDNRTGKPVHSMVAHLDAVTCLAVDPNGAFLMSGSHDCSLRLWSLDNKTCVQEITAHRKKHEEAIHAVACHPSKALIASAGADALAKVFV",,binds
"CTTNBP2NL, endogenous (protein, UniProt Q9P2B4 1-639) MNLEKLSKPELLTLFSILEGELEARDLVIEALKAQHRDTFIEERYGKYNISDPLMALQRDFETLKEKNDGEKQPVCTNPLSILKVVMKQCKNMQERMLSQLAAAESRHRKVILDLEEERQRHAQDTAEGDDVTYMLEKERERLTQQLEFEKSQVKKFEKEQKKLSSQLEEERSRHKQLSSMLVLECKKATNKAAEEGQKAGELSLKLEKEKSRVSKLEEELAAERKRGLQTEAQVEKQLSEFDIEREQLRAKLNREENRTKTLKEEMESLKKIVKDLEASHQHSSPNEQLKKPVTVSKGTATEPLMLMSVFCQTESFPAERTHGSNIAKMTNTGLPGPATPAYSYAKTNGHCDPEIQTTRELTAGNNVENQVPPREKSVALAQEKPVENGGCPVGIETPVPMPSPLSSSGSSLSPSSTASSSLTSSPCSSPVLTKRLLGSSASSPGYQSSYQVGINQRFHAARHKFQSQADQDQQASGLQSPPSRDLSPTLIDNSAAKQLARNTVTQVLSRFTSQQGPIKPVSPNSSPFGTDYRNLANTANPRGDTSHSPTPGKVSSPLSPLSPGIKSPTIPRAERGNPPPIPPKKPGLTPSPSATTPLTKTHSQAASLTTAEDLASSCSSNTVVANGKDVELLLPTSS",binds,
"SIKE1, endogenous (protein, UniProt Q9BRV8 1-207) MSCTIEKILTDAKTLLERLREHDAAAESLVDQSAALHRRVAAMREAGTALPDQYQEDASDMKDMSKYKPHILLSQENTQIRDLQQENRELWISLEEHQDALELIMSKYRKQMLQLMVAKKAVDAEPVLKAHQSHSAEIESQIDRICEMGEVMRKAVQVDDDQFCKIQEKLAQLELENKELRELLSISSESLQARKENSMDTASQAIK",binds,
"SLMAP, endogenous (protein, UniProt Q14BN4 1-828) MPSALAIFTCRPNSHPFQERHVYLDEPIKIGRSVARCRPAQNNATFDCKVLSRNHALVWFDHKTGKFYLQDTKSSNGTFINSQRLSRGSEESPPCEILSGDIIQFGVDVTENTRKVTHGCIVSTIKLFLPDGMEARLRSDVIHAPLPSPVDKVAANTPSMYSQELFQLSQYLQEALHREQMLEQKLATLQRLLAITQEASDTSWQALIDEDRLLSRLEVMGNQLQACSKNQTEDSLRKELIALQEDKHNYETTAKESLRRVLQEKIEVVRKLSEVERSLSNTEDECTHLKEMNERTQEELRELANKYNGAVNEIKDLSDKLKVAEGKQEEIQQKGQAEKKELQHKIDEMEEKEQELQAKIEALQADNDFTNERLTALQVRLEHLQEKTLKECSSLEHLLSKSGGDCTFIHQFIECQKKLIVEGHLTKAVEETKLSKENQTRAKESDFSDTLSPSKEKSSDDTTDAQMDEQDLNEPLAKVSLLKDDLQGAQSEIEAKQEIQHLRKELIEAQELARTSKQKCFELQALLEEERKAYRNQVEESTKQIQVLQAQLQRLHIDTENLREEKDSEITSTRDELLSARDEILLLHQAAAKVASERDTDIASLQEELKKVRAELERWRKAASEYEKEITSLQNSFQLRCQQCEDQQREEATRLQGELEKLRKEWNALETECHSLKRENVLLSSELQRQEKELHNSQKQSLELTSDLSILQMSRKELENQVGSLKEQHLRDSADLKTLLSKAENQAKDVQKEYEKTQTVLSELKLKFEMTEQEKQSITDELKQCKNNLKLLREKGNNKPWPWMPMLAALVAVTAIVLYVPGLARASP",binds,
